Laboratory results reported in article PMC7819943, “Rice protein-binding microarrays: a tool to detect cis-acting elements near promoter regions in rice”.
The other results are listed elsewhere or left out.

Amino acid sequences for entries named in this document (tags omitted).
UniProt Q0JBA9, entry or part of it: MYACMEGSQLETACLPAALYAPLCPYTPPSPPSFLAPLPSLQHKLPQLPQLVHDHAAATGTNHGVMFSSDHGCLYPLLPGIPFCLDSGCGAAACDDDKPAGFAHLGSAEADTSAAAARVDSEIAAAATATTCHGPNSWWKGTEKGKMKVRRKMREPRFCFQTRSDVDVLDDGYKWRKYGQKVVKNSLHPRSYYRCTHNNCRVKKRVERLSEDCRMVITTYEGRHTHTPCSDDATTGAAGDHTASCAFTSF

target: OsWRKY34 (Oryza sativa, UniProt Q0JBA9 1-250); assay: protein-binding microarray (RPBM); PBS, 2% BSA, 51.3 ng/ul salmon testes DNA, 50 uM zinc acetate, 200 nM TF, 25 C, 1 h; high values mean tight binding; conditions: protein: recombinant; tags: N-terminal polyhistidine and DsRed monomer fusion (pET32a); label: CyDye5-dUTP incorporated in the synthesized complementary strand; 3' TTTTT single-stranded linker to array surface; dsDNA, one strand shown
In short: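 The binding signal is fluorescence intensity per array feature (arbitrary units). Readings came from an Axon 4000B scanner after a washed, 2% BSA-blocked, double-stranded custom Agilent array had been incubated for 1 h at 25 °C with 200 nM protein and 50 µM zinc acetate. The protein was a Ni–NTA-purified transcription factor fused N-terminally to polyhistidine and DsRed, expressed in E. coli BL21-CodonPlus.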

| Sequence | binding signal |
| --- | --- |
| GCGCCGTTTATCTTTTTTTTTTCCGCTGCTTAGATCTTTACGGAGTCACCTAGTGCAG | 12200 fluorescence intensity (a.u.) |
| TATAGATTTTCGTCTCCAACGCTTGACCGTCCGTTTTATTCGGAGTCACCTAGTGCAG | 12800 fluorescence intensity (a.u.) |
| AGCACCTGCATGAAAATAAGCCATTGACCATTTTCAGGGGCGGAGTCACCTAGTGCAG | 8220 fluorescence intensity (a.u.) |
| CGTTCGTCTTAGGCCGTGTTTAGATTTTTTTTTTTGCCAACGGAGTCACCTAGTGCAG | 8160 fluorescence intensity (a.u.) |
| ACCTTCTCGAGAACCCTAAAACCACTCTAATTACACTGTCCGGAGTCACCTAGTGCAG | 8560 fluorescence intensity (a.u.) |
| TTTTACGTCCATATCCATACCCTTGGTTTGAACTTTTTTTCGGAGTCACCTAGTGCAG | 8570 fluorescence intensity (a.u.) |
| CACCCGCATCCATCCACACCACCCGCACGCGCAGCCGCACCGGAGTCACCTAGTGCAG | 9670 fluorescence intensity (a.u.) |
| CCACACAGCCTCTGGTCCCCAGCTGTCAGCCCGCCGCGCCCGGAGTCACCTAGTGCAG | 8930 fluorescence intensity (a.u.) |
| ATCCCACGTGTACGCTTAGCAAATTCACAAATCCCAACCTCGGAGTCACCTAGTGCAG | 8850 fluorescence intensity (a.u.) |
| ACCCTATATGCCACATTTCCACTTGTTCTATTTGAAAGTGCGGAGTCACCTAGTGCAG | 10400 fluorescence intensity (a.u.) |
| CAAAAACACTCCACATATTTTTCCTTTTAGTTACGTAATTCGGAGTCACCTAGTGCAG | 9500 fluorescence intensity (a.u.) |
| TGCTTGTGTGCTTTGTTTGTCGCGTAGATTTCGGCCGTTTCGGAGTCACCTAGTGCAG | 9940 fluorescence intensity (a.u.) |
| AGTAGAATTTGGCAGGATGTTGGTTCTTTTGTAGCCCAAACGGAGTCACCTAGTGCAG | 9800 fluorescence intensity (a.u.) |
| TTCTCTCTGTCTCGCTCCTTCGTTCGCTCGCTTTATCCCCCGGAGTCACCTAGTGCAG | 12000 fluorescence intensity (a.u.) |
| AACGCGATTCGTCCACGACCATGACATGCGATCACCCCACCGGAGTCACCTAGTGCAG | 8610 fluorescence intensity (a.u.) |
| CACGTTTGCCATTTTCTCGGTTTGGACCATGCGTATAGGTCGGAGTCACCTAGTGCAG | 9200 fluorescence intensity (a.u.) |
| GTCGCGGATGGTGGAAAGGGAGGCAGGGGTTGGGCCTTGGCGGAGTCACCTAGTGCAG | 9760 fluorescence intensity (a.u.) |
| CCGCTGTGGGATTCTTGCCGATTCTTGCCGTCCAACCGCCCGGAGTCACCTAGTGCAG | 9640 fluorescence intensity (a.u.) |
| CTGGTCCAGTCTTCTAAGATGCTCATAGGGATAGGGTTTGCGGAGTCACCTAGTGCAG | 8300 fluorescence intensity (a.u.) |
| TTGTTTCCTCATGTTCGTCAATGCAATCAGGTTAATTAACCGGAGTCACCTAGTGCAG | 8400 fluorescence intensity (a.u.) |
| TTTTATTTTAGCTTTCTTTTTACTTCATTCATACATACATCGGAGTCACCTAGTGCAG | 8160 fluorescence intensity (a.u.) |

| Sequence | binding signal |
| --- | --- |
| CCGCTTCAGGCTGCTTCTCTCTCTCCCATCGCTATTGTTCCGGAGTCACCTAGTGCAG | 10300 fluorescence intensity (a.u.) |
| ACGTGGGCCCGAAGCGCACTCTGGCCCCACATGCCAGTCACGGAGTCACCTAGTGCAG | 8180 fluorescence intensity (a.u.) |
| TCCGTGCCCCGACGTTCCTCCACGATTACCTCCGGCTCTCCGGAGTCACCTAGTGCAG | 10300 fluorescence intensity (a.u.) |
| TCGACCACCATTGCCCGTATTCCTCGGTGTCCATCTTTGACGGAGTCACCTAGTGCAG | 10200 fluorescence intensity (a.u.) |
| CTGAAGATTGGATCTAAACTTTGTATCTAAACACAGCCATCGGAGTCACCTAGTGCAG | 64300 fluorescence intensity (a.u.) |
| CGCCGAAAATACGAAATTTCAGATCCCGCCCGCCATCTCACGGAGTCACCTAGTGCAG | 9620 fluorescence intensity (a.u.) |
| CCCACCCGCCAGTCTAATTGGGTAGACCCAGTCCAAAATACGGAGTCACCTAGTGCAG | 8840 fluorescence intensity (a.u.) |
| CATTGAACGATGGAACAAAAAGCGGCAGCAAGCTGTTGACCGGAGTCACCTAGTGCAG | 8150 fluorescence intensity (a.u.) |
| GTGGGATTCGCCTGCTTGCTTGCTGGGGCCTTGGGAAATGCGGAGTCACCTAGTGCAG | 8230 fluorescence intensity (a.u.) |
| CTTATTCCTATCCGAAATTTCTCTCTTTGTTGTATGTTACCGGAGTCACCTAGTGCAG | 14100 fluorescence intensity (a.u.) |
| CTATCTCTCTTGCTTCAGCCAACAGCTTGACCACCCTGCACGGAGTCACCTAGTGCAG | 10200 fluorescence intensity (a.u.) |
| GGCACCGATCCAGCATATAGCTCCAAATACACTCTACTCTCGGAGTCACCTAGTGCAG | 8690 fluorescence intensity (a.u.) |
| ACACTAACTTCATCTTCGATACTTTCTCCGTTTCGTATTACGGAGTCACCTAGTGCAG | 9110 fluorescence intensity (a.u.) |
| CGCCACCCTGTTCCGCCGCCCGCTCCGCCGGCCTGCTCCGCGGAGTCACCTAGTGCAG | 8270 fluorescence intensity (a.u.) |
| CTAATTGTTGATGTCATGTTGTTGGATACCTTTTTCCTTACGGAGTCACCTAGTGCAG | 8610 fluorescence intensity (a.u.) |
| CGGTGTTGGGATCGGGTTTGGAGGTGGTAAGGGTGGTGGTCGGAGTCACCTAGTGCAG | 10600 fluorescence intensity (a.u.) |
| CGTATGCACACCTCCTCAGCCTCGAGCTCCTTTGGAATGCCGGAGTCACCTAGTGCAG | 9280 fluorescence intensity (a.u.) |
| TTTGCCTTTTGATTGTATGACTGGAATGCTTGTTGAGCTTCGGAGTCACCTAGTGCAG | 8100 fluorescence intensity (a.u.) |
| CCGTCGTTTTCGTTCTCCTCTGCTTCGCCTCGGCCACGCTCGGAGTCACCTAGTGCAG | 9690 fluorescence intensity (a.u.) |
| GCCTAGCCGCCGCCTTTATAGCCGCCGCCGGTCGTCGCCGCGGAGTCACCTAGTGCAG | 8460 fluorescence intensity (a.u.) |
| TCCCTTCCTTCTTTGCCCCATACTACCATGGATTCCATTCCGGAGTCACCTAGTGCAG | 8610 fluorescence intensity (a.u.) |

Reprinted from the results shown for reference:

| Sequence | binding signal |
| --- | --- |
| CGCCACCCTGTTCCGCCGCCCGCTCCGCCGGCCTGCTCCGCGGAGTCACCTAGTGCAG | 8270 fluorescence intensity (a.u.) |
| CTAATTGTTGATGTCATGTTGTTGGATACCTTTTTCCTTACGGAGTCACCTAGTGCAG | 8610 fluorescence intensity (a.u.) |
| CGGTGTTGGGATCGGGTTTGGAGGTGGTAAGGGTGGTGGTCGGAGTCACCTAGTGCAG | 10600 fluorescence intensity (a.u.) |
